The source of these data is publication PMC5668243.

By UniProt entry, the sequences of proteins in these tests, tags left out. Residues count along the entry.
UniProt P11021, residues 19-654: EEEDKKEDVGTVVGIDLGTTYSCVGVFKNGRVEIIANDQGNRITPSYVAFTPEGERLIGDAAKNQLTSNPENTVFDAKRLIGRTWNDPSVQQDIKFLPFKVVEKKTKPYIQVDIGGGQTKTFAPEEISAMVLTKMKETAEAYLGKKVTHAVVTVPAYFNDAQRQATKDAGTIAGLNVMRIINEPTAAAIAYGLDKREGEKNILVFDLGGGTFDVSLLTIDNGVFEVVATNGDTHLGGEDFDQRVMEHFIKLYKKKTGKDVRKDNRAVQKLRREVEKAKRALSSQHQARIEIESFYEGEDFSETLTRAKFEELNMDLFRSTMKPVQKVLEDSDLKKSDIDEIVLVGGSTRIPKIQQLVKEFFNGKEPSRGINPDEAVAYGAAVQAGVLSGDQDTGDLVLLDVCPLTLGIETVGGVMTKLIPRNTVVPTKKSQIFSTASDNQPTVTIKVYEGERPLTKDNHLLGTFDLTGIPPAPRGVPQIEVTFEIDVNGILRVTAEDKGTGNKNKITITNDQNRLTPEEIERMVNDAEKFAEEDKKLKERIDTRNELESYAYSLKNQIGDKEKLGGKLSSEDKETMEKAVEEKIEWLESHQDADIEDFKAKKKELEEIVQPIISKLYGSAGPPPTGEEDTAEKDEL
UniProt P14625, residues 22-803: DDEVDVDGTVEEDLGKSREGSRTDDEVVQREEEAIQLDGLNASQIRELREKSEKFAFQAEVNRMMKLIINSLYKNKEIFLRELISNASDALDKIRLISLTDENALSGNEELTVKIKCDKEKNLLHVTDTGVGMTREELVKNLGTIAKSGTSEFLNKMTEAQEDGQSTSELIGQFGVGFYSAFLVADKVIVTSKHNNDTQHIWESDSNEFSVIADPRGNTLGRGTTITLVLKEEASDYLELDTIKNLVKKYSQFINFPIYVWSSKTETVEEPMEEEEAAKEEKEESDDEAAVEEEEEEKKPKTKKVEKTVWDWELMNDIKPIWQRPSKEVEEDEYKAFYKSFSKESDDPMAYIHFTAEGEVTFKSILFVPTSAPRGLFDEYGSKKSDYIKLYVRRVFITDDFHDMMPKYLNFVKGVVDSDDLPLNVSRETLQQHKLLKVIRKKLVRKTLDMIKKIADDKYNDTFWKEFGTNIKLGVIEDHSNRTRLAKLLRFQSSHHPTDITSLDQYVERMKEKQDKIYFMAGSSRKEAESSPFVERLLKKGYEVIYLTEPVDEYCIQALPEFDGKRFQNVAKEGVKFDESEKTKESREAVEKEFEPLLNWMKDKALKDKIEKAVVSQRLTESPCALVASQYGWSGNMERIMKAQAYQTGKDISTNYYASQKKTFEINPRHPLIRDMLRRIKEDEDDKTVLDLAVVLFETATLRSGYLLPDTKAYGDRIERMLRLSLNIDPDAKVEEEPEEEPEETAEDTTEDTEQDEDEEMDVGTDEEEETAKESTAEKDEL
UniProt P02751, residues 32-2477: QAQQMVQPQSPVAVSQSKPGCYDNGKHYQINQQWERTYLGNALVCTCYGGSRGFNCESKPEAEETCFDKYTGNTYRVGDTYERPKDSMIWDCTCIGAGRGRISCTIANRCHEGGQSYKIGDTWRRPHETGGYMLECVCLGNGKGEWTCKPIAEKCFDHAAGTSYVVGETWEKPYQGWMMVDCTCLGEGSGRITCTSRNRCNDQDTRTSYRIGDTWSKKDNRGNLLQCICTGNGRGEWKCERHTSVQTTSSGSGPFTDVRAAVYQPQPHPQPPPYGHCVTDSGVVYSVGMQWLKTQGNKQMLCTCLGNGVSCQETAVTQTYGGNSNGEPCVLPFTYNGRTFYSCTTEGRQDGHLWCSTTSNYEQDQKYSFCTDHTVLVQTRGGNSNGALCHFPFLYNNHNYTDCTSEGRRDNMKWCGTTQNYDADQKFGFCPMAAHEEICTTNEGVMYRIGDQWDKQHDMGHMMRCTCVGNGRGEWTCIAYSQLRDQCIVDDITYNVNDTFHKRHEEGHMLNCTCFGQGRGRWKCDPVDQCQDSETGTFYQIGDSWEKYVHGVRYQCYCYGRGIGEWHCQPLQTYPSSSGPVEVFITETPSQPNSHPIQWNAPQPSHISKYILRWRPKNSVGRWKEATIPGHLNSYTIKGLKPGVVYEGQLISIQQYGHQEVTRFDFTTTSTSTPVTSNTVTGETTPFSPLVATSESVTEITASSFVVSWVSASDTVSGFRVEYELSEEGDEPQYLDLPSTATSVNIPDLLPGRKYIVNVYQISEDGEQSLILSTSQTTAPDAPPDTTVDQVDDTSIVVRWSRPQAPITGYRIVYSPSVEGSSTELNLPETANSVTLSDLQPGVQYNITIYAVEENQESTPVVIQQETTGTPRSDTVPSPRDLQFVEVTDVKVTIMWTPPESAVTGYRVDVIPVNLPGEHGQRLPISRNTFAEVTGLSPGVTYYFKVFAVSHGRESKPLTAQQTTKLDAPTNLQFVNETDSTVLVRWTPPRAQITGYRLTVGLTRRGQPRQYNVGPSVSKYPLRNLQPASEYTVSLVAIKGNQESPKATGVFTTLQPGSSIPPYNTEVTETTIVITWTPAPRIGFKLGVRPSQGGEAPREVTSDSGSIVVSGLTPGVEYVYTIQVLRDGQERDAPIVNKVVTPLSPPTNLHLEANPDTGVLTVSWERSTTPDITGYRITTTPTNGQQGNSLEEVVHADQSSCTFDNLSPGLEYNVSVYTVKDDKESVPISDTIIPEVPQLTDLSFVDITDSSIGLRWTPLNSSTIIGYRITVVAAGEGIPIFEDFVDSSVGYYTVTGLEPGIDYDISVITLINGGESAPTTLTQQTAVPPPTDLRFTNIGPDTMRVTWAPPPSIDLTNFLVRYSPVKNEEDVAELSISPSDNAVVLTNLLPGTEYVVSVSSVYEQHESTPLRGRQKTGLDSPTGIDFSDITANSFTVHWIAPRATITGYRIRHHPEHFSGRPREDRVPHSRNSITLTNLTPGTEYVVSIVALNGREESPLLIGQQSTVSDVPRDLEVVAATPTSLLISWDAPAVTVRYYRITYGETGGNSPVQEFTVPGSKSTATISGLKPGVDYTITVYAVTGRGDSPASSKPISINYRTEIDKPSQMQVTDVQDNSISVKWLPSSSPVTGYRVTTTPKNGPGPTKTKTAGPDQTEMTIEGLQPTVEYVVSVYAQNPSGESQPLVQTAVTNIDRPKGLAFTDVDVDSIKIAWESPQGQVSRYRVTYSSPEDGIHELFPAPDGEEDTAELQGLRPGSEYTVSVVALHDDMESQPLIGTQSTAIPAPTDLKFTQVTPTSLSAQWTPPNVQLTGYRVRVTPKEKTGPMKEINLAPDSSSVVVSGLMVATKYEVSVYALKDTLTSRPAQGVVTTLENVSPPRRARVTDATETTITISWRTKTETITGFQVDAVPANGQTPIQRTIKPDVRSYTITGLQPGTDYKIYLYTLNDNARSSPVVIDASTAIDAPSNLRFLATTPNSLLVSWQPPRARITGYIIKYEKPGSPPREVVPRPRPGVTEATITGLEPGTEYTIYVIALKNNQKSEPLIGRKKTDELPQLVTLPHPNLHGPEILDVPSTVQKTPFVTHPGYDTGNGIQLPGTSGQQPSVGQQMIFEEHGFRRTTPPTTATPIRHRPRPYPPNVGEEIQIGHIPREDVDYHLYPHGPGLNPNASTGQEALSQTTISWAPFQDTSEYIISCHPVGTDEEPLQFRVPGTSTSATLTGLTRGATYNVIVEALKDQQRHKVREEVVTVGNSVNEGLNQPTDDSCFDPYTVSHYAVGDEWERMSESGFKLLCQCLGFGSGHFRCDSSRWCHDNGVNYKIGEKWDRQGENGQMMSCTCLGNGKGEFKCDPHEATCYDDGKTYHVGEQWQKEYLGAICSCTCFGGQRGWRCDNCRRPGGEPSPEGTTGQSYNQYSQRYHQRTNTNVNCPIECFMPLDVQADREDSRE

Results are given in words; binding and its absence hold for the method and conditions named. Binding seen in cells or lysates may run through a third protein. Some binding calls cover weakened binding; strength is not graded here.

Test [1] deals with GRP78 (human (endogenous in GTM3)) (UniProt P11021). The experiment in a line: co-IP; anti-KDEL antibody (2.5 ug) on Dynabeads protein G; total lysates (100 ug) of GTM3 cells treated with Veh or Dex for 3 days, 10 min at room temperature; washed 3 times with lysis buffer containing 0.5% Triton X-100; blotted for ECM proteins, GRP78 and GRP94; IgG antibody as negative control.
Test [2] addresses GRP94 (human (endogenous in GTM3)) (UniProt P14625). The test is described as above.

Take “fibronectin (from UniProt P02751 32-2477)”: the binding entry in test [1] and in test [2] was “binds” in each case.
